Results are given in words; binding and its absence hold for the method and conditions named. Binding seen in cells or lysates may run through a third protein. Binding calls can cover weak binding; strength is not graded here.
T1: claudin-7 (human (endogenous in HT29 and SW948)) (UniProt O95471)
T1 sequence: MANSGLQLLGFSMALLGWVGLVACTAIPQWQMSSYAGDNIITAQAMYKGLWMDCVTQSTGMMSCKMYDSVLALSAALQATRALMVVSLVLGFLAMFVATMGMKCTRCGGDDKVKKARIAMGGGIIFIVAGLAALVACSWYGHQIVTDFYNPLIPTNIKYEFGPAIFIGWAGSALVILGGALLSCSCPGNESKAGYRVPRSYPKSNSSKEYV

Sequences of proteins named here, by UniProt entry; tags and fusion partners are left off. A change or cut given only in a name is not applied to a line headed by its entry.
UniProt P78536: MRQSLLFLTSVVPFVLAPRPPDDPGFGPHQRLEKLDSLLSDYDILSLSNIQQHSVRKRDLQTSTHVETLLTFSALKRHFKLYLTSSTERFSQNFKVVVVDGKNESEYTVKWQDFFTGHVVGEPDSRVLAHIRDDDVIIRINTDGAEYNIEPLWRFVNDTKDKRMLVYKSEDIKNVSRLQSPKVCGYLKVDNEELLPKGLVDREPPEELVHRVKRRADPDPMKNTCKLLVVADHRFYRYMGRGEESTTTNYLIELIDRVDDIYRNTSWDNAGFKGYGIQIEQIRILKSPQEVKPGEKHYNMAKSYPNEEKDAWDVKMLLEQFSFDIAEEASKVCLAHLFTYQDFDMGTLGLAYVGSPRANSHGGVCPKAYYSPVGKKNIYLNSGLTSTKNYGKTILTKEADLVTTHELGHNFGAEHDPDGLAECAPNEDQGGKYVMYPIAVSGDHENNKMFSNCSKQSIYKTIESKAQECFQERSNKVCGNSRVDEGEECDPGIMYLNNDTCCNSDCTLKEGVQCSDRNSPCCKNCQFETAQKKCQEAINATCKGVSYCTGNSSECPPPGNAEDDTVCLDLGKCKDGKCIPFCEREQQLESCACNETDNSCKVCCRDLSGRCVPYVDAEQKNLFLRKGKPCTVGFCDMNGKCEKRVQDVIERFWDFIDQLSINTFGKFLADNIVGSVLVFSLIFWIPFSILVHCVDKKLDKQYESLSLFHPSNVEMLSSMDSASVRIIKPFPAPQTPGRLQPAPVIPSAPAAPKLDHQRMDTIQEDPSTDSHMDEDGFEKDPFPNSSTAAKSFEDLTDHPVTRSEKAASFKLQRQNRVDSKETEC
UniProt P08253: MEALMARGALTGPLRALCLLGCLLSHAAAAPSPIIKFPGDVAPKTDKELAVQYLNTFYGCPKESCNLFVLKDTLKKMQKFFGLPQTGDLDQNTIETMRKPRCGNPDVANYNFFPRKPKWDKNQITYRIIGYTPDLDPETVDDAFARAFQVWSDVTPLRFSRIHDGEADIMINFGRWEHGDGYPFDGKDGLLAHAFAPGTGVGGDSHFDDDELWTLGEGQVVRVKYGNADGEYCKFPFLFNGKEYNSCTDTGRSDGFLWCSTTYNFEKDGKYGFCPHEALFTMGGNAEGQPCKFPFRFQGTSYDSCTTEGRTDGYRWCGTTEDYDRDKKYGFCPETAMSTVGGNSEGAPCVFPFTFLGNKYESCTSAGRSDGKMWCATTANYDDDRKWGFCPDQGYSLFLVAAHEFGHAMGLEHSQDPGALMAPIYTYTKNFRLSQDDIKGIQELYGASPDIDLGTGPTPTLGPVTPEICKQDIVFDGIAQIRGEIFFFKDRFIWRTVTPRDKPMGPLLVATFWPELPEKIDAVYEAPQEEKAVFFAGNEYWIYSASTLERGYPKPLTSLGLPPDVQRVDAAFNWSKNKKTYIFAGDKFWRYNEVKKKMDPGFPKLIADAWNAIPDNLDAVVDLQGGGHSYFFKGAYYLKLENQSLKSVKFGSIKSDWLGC
UniProt P14780: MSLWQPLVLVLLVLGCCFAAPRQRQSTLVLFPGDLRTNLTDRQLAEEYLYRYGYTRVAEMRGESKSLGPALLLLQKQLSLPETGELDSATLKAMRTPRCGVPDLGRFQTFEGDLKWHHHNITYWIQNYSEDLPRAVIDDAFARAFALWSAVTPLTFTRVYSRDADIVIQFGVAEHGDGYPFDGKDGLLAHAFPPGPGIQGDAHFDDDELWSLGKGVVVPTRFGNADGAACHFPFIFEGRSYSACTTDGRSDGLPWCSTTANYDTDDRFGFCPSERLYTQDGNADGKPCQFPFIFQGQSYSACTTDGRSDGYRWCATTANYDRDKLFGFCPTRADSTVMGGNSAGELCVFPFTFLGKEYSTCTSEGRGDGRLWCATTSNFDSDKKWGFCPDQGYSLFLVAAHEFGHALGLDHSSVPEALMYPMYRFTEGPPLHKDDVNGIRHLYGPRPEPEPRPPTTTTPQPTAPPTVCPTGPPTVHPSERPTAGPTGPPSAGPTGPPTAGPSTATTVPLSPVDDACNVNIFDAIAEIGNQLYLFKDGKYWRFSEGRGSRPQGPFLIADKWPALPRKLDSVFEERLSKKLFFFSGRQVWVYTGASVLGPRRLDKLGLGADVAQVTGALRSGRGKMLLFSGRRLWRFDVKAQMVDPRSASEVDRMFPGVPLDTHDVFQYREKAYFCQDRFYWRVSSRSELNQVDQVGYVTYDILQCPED


Assays:
[1] = molecular target: T1, claudin-7 (human (endogenous in HT29 and SW948)); assay: co-IP; lysates of HT29 and SW948 wt and cld7 knock-down cells (HEPES buffer, 1% Lubrol or 1% TritonX-100, 4°C) precipitated with control IgG, anti-EpC, anti-cld7 or anti-Tspan8 and ProteinG-Sepharose; Western blot; precipitates also separated by sucrose density gradient (Fig.1E,1F,4D)
[2] = molecular target: CD49c (human (endogenous in HT29)); assay: co-IP; lysates of PMA-treated HT29 wt and holoclone-derived cells precipitated with control IgG, anti-α3 or anti-β1 and ProteinG-Sepharose; blotted with anti-cld7 and anti-p-cld7 (Fig.3F)

Molecule | binding [1] | binding [2]
TACE (TNFα converting enzyme) (from UniProt P78536) | binds | –
claudin-7 (protein, UniProt O95471 1-211) MANSGLQLLGFSMALLGWVGLVACTAIPQWQMSSYAGDNIITAQAMYKGLWMDCVTQSTGMMSCKMYDSVLALSAALQATRALMVVSLVLGFLAMFVATMGMKCTRCGGDDKVKKARIAMGGGIIFIVAGLAALVACSWYGHQIVTDFYNPLIPTNIKYEFGPAIFIGWAGSALVILGGALLSCSCPGNESKAGYRVPRSYPKSNSSKEYV | – | binds
phosphorylated claudin-7 (protein, UniProt O95471 1-211, phosphorylated (detected with anti-p-cld7; site not given)) MANSGLQLLGFSMALLGWVGLVACTAIPQWQMSSYAGDNIITAQAMYKGLWMDCVTQSTGMMSCKMYDSVLALSAALQATRALMVVSLVLGFLAMFVATMGMKCTRCGGDDKVKKARIAMGGGIIFIVAGLAALVACSWYGHQIVTDFYNPLIPTNIKYEFGPAIFIGWAGSALVILGGALLSCSCPGNESKAGYRVPRSYPKSNSSKEYV | – | binds

The remaining lines, values ahead:

binding [1] | binding [2] | Molecule
binds weakly | – | MMP2 (from UniProt P08253) (enzyme)
binds weakly | – | MMP9 (from UniProt P14780) (enzyme)
